## Drug screen on melanoma cell lines: cell count

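Human melanoma cells were exposed to two drugs together for 72 h in 1,536-well plates and read by automated microscopy after fixing and staining. Each value is the count of nuclei relative to DMSO-treated wells, in %, so that 100 equals the control. Every drug was used at one fixed concentration, the lower of two screened (a fifth of the higher). No replicate spread is given; individual values may be noisy.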 This is part of the screen, not chosen by result. A dash means that no value is listed here.

Compounds and concentrations:
cisplatin, 1.6 µM: N.N.[Cl][Pt][Cl]
lenalidomide, 1 µM: Nc1cccc2c1CN(C1CCC(=O)NC1=O)C2=O (stereo not shown)
crizotinib, 0.2 µM: C[C@@H](Oc1cc(-c2cnn(C3CCNCC3)c2)cnc1N)c1c(Cl)ccc(F)c1Cl
OSU-03012, 1 µM: NCC(=O)Nc1ccc(-n2nc(C(F)(F)F)cc2-c2ccc3c(ccc4ccccc43)c2)cc1
erlotinib, 0.8 µM: C#Cc1cccc(Nc2ncnc3cc(OCCOC)c(OCCOC)cc23)c1
MK-2206, 0.4 µM: NC1(c2ccc(-c3nc4ccn5c(=O)[nH]nc5c4cc3-c3ccccc3)cc2)CCC1
vincristine, 0.0001 µM: CC[C@]1(O)C[C@H]2CN(CCc3c([nH]c4ccccc34)[C@@](C(=O)OC)(c3cc4c(cc3OC)N(C=O)[C@H]3[C@@](O)(C(=O)OC)[C@H](OC(C)=O)[C@]5(CC)C=CCN6CC[C@]43[C@@H]65)C2)C1
SNS-314, 0.0008 µM: O=C(Nc1cccc(Cl)c1)Nc1ncc(CCNc2ncnc3ccsc23)s1
everolimus, 0.02 µM: CO[C@H]1C[C@@H]2CC[C@@H](C)[C@@](O)(O2)C(=O)C(=O)N2CCCC[C@H]2C(=O)O[C@H]([C@H](C)C[C@@H]2CC[C@@H](OCCO)[C@H](OC)C2)CC(=O)[C@H](C)/C=C(\C)[C@@H](O)[C@@H](OC)C(=O)[C@H](C)C[C@H](C)/C=C/C=C/C=C/1C
ruxolitinib, 1 µM: N#CC[C@H](C1CCCC1)n1cc(-c2ncnc3[nH]ccc23)cn1
CP-690550, 1 µM: C[C@@H]1CCN(C(=O)CC#N)C[C@@H]1N(C)c1ncnc2[nH]ccc12

| # | Pair | A101D | A2058 | COLO 792 | A375 | C32 |
|---|---|---|---|---|---|---|
| 1 | SNS-314 + erlotinib | 81.8 | 92.2 | - | 106 | 102 |
| 2 | SNS-314 + lenalidomide | 98.9 | 99.0 | - | 106 | 83.6 |
| 3 | ruxolitinib + lenalidomide | 95.2 | 98.3 | - | 114 | 95.4 |
| 4 | MK-2206 + CP-690550 | 84.2 | 92.8 | - | 80.4 | 98.5 |
| 5 | vincristine + lenalidomide | 75.9 | 29.6 | - | 67.9 | 74.9 |
| 6 | ruxolitinib + OSU-03012 | 96.6 | 95.8 | - | 23.6 | 91.4 |
| 7 | vincristine + SNS-314 | 75.1 | 49.1 | - | 84.3 | 89.7 |
| 8 | OSU-03012 + MK-2206 | 124 | 98.5 | - | 18.9 | 117 |
| 9 | crizotinib + everolimus | 80.2 | 74.9 | 51.6 | 72.5 | 74.9 |
| 10 | erlotinib + crizotinib | 83.5 | 86.7 | 87.5 | 97.9 | 99.1 |
| 11 | vincristine + everolimus | 52.7 | 16.7 | - | 42.1 | 64.0 |
| 12 | everolimus + ruxolitinib | 83.0 | 65.9 | - | 74.3 | 83.5 |
| 13 | cisplatin + everolimus | 84.0 | 69.1 | - | 52.9 | 74.7 |
| 14 | SNS-314 + cisplatin | 101 | 98.1 | - | 101 | 90.6 |
| 15 | erlotinib + OSU-03012 | 78.1 | 93.3 | - | 17.4 | 97.9 |
| 16 | OSU-03012 + lenalidomide | 102 | 99.6 | - | 17.7 | 83.5 |
| 17 | cisplatin + OSU-03012 | 88.4 | 89.1 | - | 91.3 | 93.8 |
| 18 | MK-2206 + SNS-314 | 95.1 | 98.8 | - | 109 | 96.8 |

The last 2 entries again:

Pair	A101D	A2058	COLO 792	A375	C32
cisplatin + OSU-03012	88.4	89.1	-	91.3	93.8
MK-2206 + SNS-314	95.1	98.8	-	109	96.8

Values as published with doi:10.1371/journal.pone.0140310, rounded.